Measurements taken from the supplement of paper PMC4862054.
Small differences around the control level are noise.

Tests used:
Assay in all cases: normalised response (% of control), CellTox Green; higher = less cell death (100 = DMSO, 0 = benzethonium chloride kill control)
Settings in all cases: incubation time: 72 h
HCC1937 = test system: HCC1937
Method: (§1)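 DSRT, 72 h incubation, CellTox Green / CellTiter-Glo readout. Signal is normalised to DMSO and benzethonium chloride controls. Value is the normalised response at dose 2.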

CAL-51 = test system: CAL-51
Method: as §1

BT-549 = test system: BT-549
Method: as §1

HCC1143 = test system: HCC1143
Method: as §1

CAL-85-1 = test system: CAL-85-1
Method: as §1

DU-4475 = test system: DU-4475
Method: as §1

CAL-148 = test system: CAL-148
Method: as §1

CAL-120 = test system: CAL-120
Method: as §1

MFM-223 = test system: MFM-223
Method: as §1

HDQ-P1 = test system: HDQ-P1
Method: as §1

MDA-MB-453 = test system: MDA-MB-453
Method: as §1

MDA-MB-468 = test system: MDA-MB-468
Method: as §1

HCC1599 = test system: HCC1599
Method: as §1

BT-474 = test system: BT-474
Method: as §1

MDA-MB-231 = test system: MDA-MB-231
Method: as §1

MCF-10A = test system: MCF-10A
Method: as §1

Hs578T = test system: Hs578T
Method: as §1

MDA-MB-436 = test system: MDA-MB-436
Method: as §1

For `C[C@@H]1C=C2C(=O)O[C@@H]3CC[C@H](C1)[C@]23O` [Galiellalactone] (50 nM), the normalised response (HCC1937) was 111%, the normalised response (CAL-51) was 91.8% and the normalised response (BT-549) was 109%. It also gave a normalised response (HCC1143) of 123%, a normalised response (CAL-85-1) of 94.9% and a normalised response (DU-4475) of 118%. It also gave a normalised response (CAL-148) of 91.9%, a normalised response (CAL-120) of 102% and a normalised response (MFM-223) of 103%. The normalised response (HDQ-P1) was 118%, the normalised response (MDA-MB-453) was 108% and the normalised response (MDA-MB-468) was 92.6%. The normalised response (HCC1599) was 121%, the normalised response (BT-474) was 103% and the normalised response (MDA-MB-231) was 111%. For the same compound, the normalised response (MCF-10A) was 104%, the normalised response (Hs578T) was 57.6% and the normalised response (MDA-MB-436) was 97.7%.
With `Cc1cc(Nc2cc(CN3CCOCC3)c3nc(C)c(Cc4ccc(Cl)cc4F)n3n2)n[nH]1` [Gandotinib] (10 nM) the normalised response (HCC1937) was 77.5%, the normalised response (CAL-51) was 104% and the normalised response (BT-549) was 99.8%. It also gave a normalised response (HCC1143) of 121%, a normalised response (CAL-85-1) of 93.4% and a normalised response (DU-4475) of 108%. The normalised response (CAL-148) was 102%, the normalised response (CAL-120) was 103% and the normalised response (MFM-223) was 101%. For the same compound, the normalised response (HDQ-P1) was 127%, the normalised response (MDA-MB-453) was 105% and the normalised response (MDA-MB-468) was 70.3%. It also gave a normalised response (HCC1599) of 113%, a normalised response (BT-474) of 100% and a normalised response (MDA-MB-231) of 101%. For the same compound, the normalised response (MCF-10A) was 108%, the normalised response (Hs578T) was 123% and the normalised response (MDA-MB-436) was 114%.
For `NC(=O)NO` [Hydroxyurea] (100 nM), the normalised response (HCC1937) was 70.5%, the normalised response (CAL-51) was 105% and the normalised response (BT-549) was 84.9%. For the same compound, the normalised response (HCC1143) was 83.8%, the normalised response (CAL-85-1) was 105% and the normalised response (DU-4475) was 96.3%. The normalised response (CAL-148) was 104%, the normalised response (CAL-120) was 100% and the normalised response (MFM-223) was 104%. For the same compound, the normalised response (HDQ-P1) was 115%, the normalised response (MDA-MB-453) was 97% and the normalised response (MDA-MB-468) was 111%. It also gave a normalised response (HCC1599) of 99.5%, a normalised response (BT-474) of 102% and a normalised response (MDA-MB-231) of 114%. For the same compound, the normalised response (MCF-10A) was 107%, the normalised response (Hs578T) was 104% and the normalised response (MDA-MB-436) was 105%.
Work on `CCc1c2c(nc3ccc(OC(=O)N4CCC(N5CCCCC5)CC4)cc13)-c1cc3c(c(=O)n1C2)COC(=O)[C@]3(O)CC` [Irinotecan] (10 nM) yielded a normalised response (HCC1937) of 64.2%, a normalised response (CAL-51) of 103% and a normalised response (BT-549) of 97%. It also gave a normalised response (HCC1143) of 110%, a normalised response (CAL-85-1) of 93.2% and a normalised response (DU-4475) of 111%. For the same compound, the normalised response (CAL-148) was 93.7%, the normalised response (CAL-120) was 103% and the normalised response (MFM-223) was 91.8%. It also gave a normalised response (HDQ-P1) of 113%, a normalised response (MDA-MB-453) of 104% and a normalised response (MDA-MB-468) of 65%. The normalised response (HCC1599) was 117%, the normalised response (BT-474) was 59.6% and the normalised response (MCF-10A) was 114%. It also gave a normalised response (Hs578T) of 116% and a normalised response (MDA-MB-436) of 100%.
`Clc1ccc(C(c2ccccc2Cl)C(Cl)Cl)cc1` (centres undefined) [Mitotane] (10 nM) was tested, and the normalised response (HCC1937) was 98.8%, the normalised response (CAL-51) was 102% and the normalised response (BT-549) was 98.5%. It also gave a normalised response (CAL-85-1) of 94.6%, a normalised response (DU-4475) of 96.6% and a normalised response (CAL-148) of 101%. The normalised response (CAL-120) was 101%, the normalised response (MFM-223) was 95.4% and the normalised response (HDQ-P1) was 99.3%. It also gave a normalised response (MDA-MB-453) of 96%, a normalised response (MDA-MB-468) of 90.3% and a normalised response (HCC1599) of 102%. For the same compound, the normalised response (BT-474) was 101%, the normalised response (MDA-MB-231) was 96.7% and the normalised response (MCF-10A) was 61.9%. The normalised response (Hs578T) was 111% and the normalised response (MDA-MB-436) was 98.8%.
Work on `CC1(C)CCC(c2ccc(Cl)cc2)=C(CN2CCN(c3ccc(C(=O)NS(=O)(=O)c4ccc(N[C@H](CCN5CCOCC5)CSc5ccccc5)c(S(=O)(=O)C(F)(F)F)c4)cc3)CC2)C1` [Navitoclax] (10 nM) yielded a normalised response (HCC1937) of 74.1%, a normalised response (CAL-51) of 93.5% and a normalised response (BT-549) of 92.7%. The normalised response (HCC1143) was 94.4%, the normalised response (CAL-85-1) was 98.4% and the normalised response (DU-4475) was 96.2%. The normalised response (CAL-148) was 103%, the normalised response (CAL-120) was 96.9% and the normalised response (MFM-223) was 102%. For the same compound, the normalised response (HDQ-P1) was 101%, the normalised response (MDA-MB-453) was 97.3% and the normalised response (MDA-MB-468) was 105%. For the same compound, the normalised response (HCC1599) was 83.8%, the normalised response (BT-474) was 101% and the normalised response (MCF-10A) was 82.4%. It also gave a normalised response (Hs578T) of 83.7% and a normalised response (MDA-MB-436) of 56%.
In the case of `COc1ccccc1S(=O)(=O)Nc1ccc2c(c1)CN(C)C(=O)N2` [PFI-1] (10 nM), the normalised response (HCC1937) was 135%, the normalised response (CAL-51) was 112% and the normalised response (BT-549) was 115%. The normalised response (HCC1143) was 116%, the normalised response (CAL-85-1) was 110% and the normalised response (DU-4475) was 111%. The normalised response (CAL-148) was 112%, the normalised response (CAL-120) was 104% and the normalised response (MFM-223) was 106%. For the same compound, the normalised response (HDQ-P1) was 107%, the normalised response (MDA-MB-453) was 90.5% and the normalised response (MDA-MB-468) was 127%. For the same compound, the normalised response (HCC1599) was 119%, the normalised response (BT-474) was 87% and the normalised response (MDA-MB-231) was 123%. It also gave a normalised response (MCF-10A) of 107%, a normalised response (Hs578T) of 70.4% and a normalised response (MDA-MB-436) of 101%.
For `Cn1c(Nc2ccc(C(F)(F)F)cc2)nc2cc(Oc3ccnc(-c4ncc(C(F)(F)F)[nH]4)c3)ccc21` [RAF265] (1 nM), the normalised response (HCC1937) was 103%, the normalised response (CAL-51) was 103% and the normalised response (BT-549) was 105%. For the same compound, the normalised response (HCC1143) was 119%, the normalised response (CAL-85-1) was 103% and the normalised response (DU-4475) was 111%. It also gave a normalised response (CAL-148) of 106%, a normalised response (CAL-120) of 103% and a normalised response (MFM-223) of 103%. It also gave a normalised response (HDQ-P1) of 122%, a normalised response (MDA-MB-453) of 109% and a normalised response (MDA-MB-468) of 96.1%. It also gave a normalised response (HCC1599) of 110%, a normalised response (BT-474) of 97.7% and a normalised response (MDA-MB-231) of 92.6%. The normalised response (MDA-MB-436) was 112%.
In the case of `CC/C(=C(\c1ccccc1)c1ccc(OCCN(C)C)cc1)c1ccccc1` [Tamoxifen] (10 nM), the normalised response (HCC1937) was 62.7%, the normalised response (CAL-51) was 90.5% and the normalised response (BT-549) was 108%. It also gave a normalised response (HCC1143) of 108%, a normalised response (CAL-85-1) of 99.7% and a normalised response (DU-4475) of 104%. The normalised response (CAL-148) was 111%, the normalised response (CAL-120) was 102% and the normalised response (MFM-223) was 101%. For the same compound, the normalised response (HDQ-P1) was 117%, the normalised response (MDA-MB-453) was 99.8% and the normalised response (MDA-MB-468) was 119%. The normalised response (HCC1599) was 91.7%, the normalised response (BT-474) was 105% and the normalised response (MDA-MB-231) was 121%. It also gave a normalised response (MCF-10A) of 74.4%, a normalised response (Hs578T) of 95.3% and a normalised response (MDA-MB-436) of 110%.
`Nc1nc2[nH]cnc2c(=S)[nH]1` [Thioguanine] (10 nM) gave a normalised response (HCC1937) of 91.3%, a normalised response (CAL-51) of 95.6% and a normalised response (BT-549) of 106%. It also gave a normalised response (HCC1143) of 108%, a normalised response (CAL-85-1) of 104% and a normalised response (DU-4475) of 93.5%. For the same compound, the normalised response (CAL-148) was 108%, the normalised response (CAL-120) was 102% and the normalised response (MFM-223) was 93%. For the same compound, the normalised response (HDQ-P1) was 108%, the normalised response (MDA-MB-453) was 97.7% and the normalised response (MDA-MB-468) was 105%. The normalised response (HCC1599) was 89.4%, the normalised response (BT-474) was 104% and the normalised response (MDA-MB-231) was 88.6%. It also gave a normalised response (MCF-10A) of 85%, a normalised response (Hs578T) of 116% and a normalised response (MDA-MB-436) of 87.8%.
